Laboratory results published in the supplement of paper PMC4604168 (melanoma cell lines).
This is one part of the list. Many values rest on one well or one pass, so single values are uncertain.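 Imaging used 1,536-well plates; nuclei positive for cleaved PARP by antibody were divided by total DNA-stained nuclei to yield the apoptosis fraction. Doses for screening kept most cells viable, and cell lines differ markedly in resting and induced cleaved-PARP levels.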

Assays:
Test in all cases: cleaved PARP positive nuclei fraction relative to DMSO control; melanoma cells; higher = more apoptosis
Details in all cases: library dose: low library concentration; 72 h
501Mel = tested on: 501Mel
A101D = tested on: A101D
A2058 = tested on: A2058
A375 = tested on: A375
C32 = tested on: C32
CBRC008 = tested on: CBRC008 (line from a melanoma biopsy)
CBRC014 = tested on: CBRC014 (line from a melanoma biopsy)
CBRC016 = tested on: CBRC016 (line from a melanoma biopsy)
CBRC017 = tested on: CBRC017 (line from a melanoma biopsy)
CBRC034 = tested on: CBRC034 (line from a melanoma biopsy)
COLO792 = tested on: COLO792
COLO800 = tested on: COLO800
COLO829 = tested on: COLO829
G361 = tested on: G361
IPC-298 = tested on: IPC-298
IST-MEL1 = tested on: IST-MEL1
LB2518-MEL = tested on: LB2518-MEL
LOXIMVI = tested on: LOXIMVI
MEL-HO = tested on: MEL-HO

## O=C(Nc1cc(C(F)(F)F)cc(C(F)(F)F)c1)c1cc(Cl)ccc1O + CS(=O)(=O)c1ccc(C(=O)Nc2ccc(Cl)c(-c3ccccn3)c2)c(Cl)c1 [vismodegib] (first compound 0.016 µM, partner dose 1 µM)
501Mel
  cleaved PARP positive nuclei fraction: 57.7%
A101D
  cleaved PARP positive nuclei fraction: 58.3%
A2058
  cleaved PARP positive nuclei fraction: 292%
A375
  cleaved PARP positive nuclei fraction: 30.9%
C32
  cleaved PARP positive nuclei fraction: 85.9%
CBRC008
  cleaved PARP positive nuclei fraction: 203%
CBRC014
  cleaved PARP positive nuclei fraction: 108%
CBRC016
  cleaved PARP positive nuclei fraction: 162%
CBRC017
  cleaved PARP positive nuclei fraction: 171%
CBRC034
  cleaved PARP positive nuclei fraction: 63%
COLO792
  cleaved PARP positive nuclei fraction: 123%
COLO800
  cleaved PARP positive nuclei fraction: 127%
COLO829
  cleaved PARP positive nuclei fraction: 19.9%
G361
  cleaved PARP positive nuclei fraction: 82.1%
IPC-298
  cleaved PARP positive nuclei fraction: 42.7%
IST-MEL1
  cleaved PARP positive nuclei fraction: 93.6%
LB2518-MEL
  cleaved PARP positive nuclei fraction: 107%
LOXIMVI
  cleaved PARP positive nuclei fraction: 118%
MEL-HO
  cleaved PARP positive nuclei fraction: 92.4%

## O=c1[nH]nc(Sc2ncc([N+](=O)[O-])s2)n1-c1ccc2c(c1)OCCO2 + O=C(O)[C@@H]1[O][Sb](=[O])([O][Sb]2(=[O])[O][C@H]([C@H](O)CO)[C@H](O)[C@H](C(=O)O)[O]2)[O][C@H]([C@H](O)CO)[C@@H]1O [stibogluconate] (first compound 0.2 µM, partner dose 2 µM)
501Mel
  cleaved PARP positive nuclei fraction: 94.6%
A101D
  cleaved PARP positive nuclei fraction: 92.3%
A2058
  cleaved PARP positive nuclei fraction: 121%
A375
  cleaved PARP positive nuclei fraction: 128%
C32
  cleaved PARP positive nuclei fraction: 73.5%
CBRC008
  cleaved PARP positive nuclei fraction: 91.1%
CBRC014
  cleaved PARP positive nuclei fraction: 99.9%
CBRC016
  cleaved PARP positive nuclei fraction: 108%
CBRC017
  cleaved PARP positive nuclei fraction: 89.2%
CBRC034
  cleaved PARP positive nuclei fraction: 62.4%
COLO792
  cleaved PARP positive nuclei fraction: 55.9%
COLO800
  cleaved PARP positive nuclei fraction: 109%
COLO829
  cleaved PARP positive nuclei fraction: 167%
G361
  cleaved PARP positive nuclei fraction: 93.3%
IPC-298
  cleaved PARP positive nuclei fraction: 81.4%
IST-MEL1
  cleaved PARP positive nuclei fraction: 33%
LB2518-MEL
  cleaved PARP positive nuclei fraction: 79.8%
LOXIMVI
  cleaved PARP positive nuclei fraction: 53.4%
MEL-HO
  cleaved PARP positive nuclei fraction: 51.5%
